Test results: the supplement of paper PMC7666118
The other results are listed elsewhere or left out.

Sequences of proteins named here, by UniProt entry; tags and fusion partners are left off. A change or cut given only in a name is not applied to a line headed by its entry.
UniProt Q9Y230, whole entry: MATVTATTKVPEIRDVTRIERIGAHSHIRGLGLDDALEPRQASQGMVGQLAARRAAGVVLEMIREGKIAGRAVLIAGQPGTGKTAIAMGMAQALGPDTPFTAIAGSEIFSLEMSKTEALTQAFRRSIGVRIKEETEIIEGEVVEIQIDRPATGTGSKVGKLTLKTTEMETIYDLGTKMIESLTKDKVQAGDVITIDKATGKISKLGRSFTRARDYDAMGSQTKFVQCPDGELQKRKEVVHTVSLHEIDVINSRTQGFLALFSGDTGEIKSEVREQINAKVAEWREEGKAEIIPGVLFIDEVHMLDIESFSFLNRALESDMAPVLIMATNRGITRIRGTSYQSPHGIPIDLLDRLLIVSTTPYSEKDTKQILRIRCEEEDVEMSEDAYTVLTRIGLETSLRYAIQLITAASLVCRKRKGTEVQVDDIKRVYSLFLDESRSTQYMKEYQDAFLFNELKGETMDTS
UniProt Q9Y265, whole entry: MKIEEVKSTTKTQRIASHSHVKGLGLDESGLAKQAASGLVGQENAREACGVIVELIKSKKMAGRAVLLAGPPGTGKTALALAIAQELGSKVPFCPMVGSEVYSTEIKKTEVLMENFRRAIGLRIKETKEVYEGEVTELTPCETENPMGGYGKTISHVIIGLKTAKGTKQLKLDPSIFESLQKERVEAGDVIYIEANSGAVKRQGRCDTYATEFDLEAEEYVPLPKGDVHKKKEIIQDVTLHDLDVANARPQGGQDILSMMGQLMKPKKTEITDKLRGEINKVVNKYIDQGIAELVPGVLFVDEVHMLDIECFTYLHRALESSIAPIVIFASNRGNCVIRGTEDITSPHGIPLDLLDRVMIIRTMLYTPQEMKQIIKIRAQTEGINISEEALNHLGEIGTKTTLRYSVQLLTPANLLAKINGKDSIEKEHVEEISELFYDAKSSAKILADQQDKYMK
UniProt Q9UBS8: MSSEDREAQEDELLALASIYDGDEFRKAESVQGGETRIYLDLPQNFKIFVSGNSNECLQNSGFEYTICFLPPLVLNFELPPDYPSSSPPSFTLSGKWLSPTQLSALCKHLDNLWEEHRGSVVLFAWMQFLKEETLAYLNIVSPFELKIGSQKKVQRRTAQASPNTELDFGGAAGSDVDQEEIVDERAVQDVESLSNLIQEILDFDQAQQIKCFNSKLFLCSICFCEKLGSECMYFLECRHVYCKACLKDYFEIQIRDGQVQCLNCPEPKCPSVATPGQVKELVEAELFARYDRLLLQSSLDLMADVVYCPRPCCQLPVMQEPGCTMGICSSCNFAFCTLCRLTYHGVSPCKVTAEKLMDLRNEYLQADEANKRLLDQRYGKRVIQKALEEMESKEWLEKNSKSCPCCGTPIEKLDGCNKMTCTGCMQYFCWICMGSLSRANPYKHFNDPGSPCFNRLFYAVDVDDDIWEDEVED
UniProt Q9NTJ5: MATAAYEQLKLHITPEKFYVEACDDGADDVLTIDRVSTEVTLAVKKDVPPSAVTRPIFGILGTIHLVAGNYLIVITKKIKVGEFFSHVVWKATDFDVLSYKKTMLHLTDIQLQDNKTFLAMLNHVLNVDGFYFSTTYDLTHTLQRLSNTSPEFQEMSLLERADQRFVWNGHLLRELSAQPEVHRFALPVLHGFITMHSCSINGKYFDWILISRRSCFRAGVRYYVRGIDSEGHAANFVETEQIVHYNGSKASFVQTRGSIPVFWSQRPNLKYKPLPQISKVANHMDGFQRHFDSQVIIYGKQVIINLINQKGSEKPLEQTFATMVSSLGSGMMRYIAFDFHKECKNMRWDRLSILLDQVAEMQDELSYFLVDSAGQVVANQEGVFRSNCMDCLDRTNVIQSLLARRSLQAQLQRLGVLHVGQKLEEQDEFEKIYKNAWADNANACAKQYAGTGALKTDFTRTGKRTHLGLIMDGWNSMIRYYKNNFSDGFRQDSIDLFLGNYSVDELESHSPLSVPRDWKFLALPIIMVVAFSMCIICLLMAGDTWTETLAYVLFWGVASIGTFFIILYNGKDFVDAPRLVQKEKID
UniProt P35241, whole entry: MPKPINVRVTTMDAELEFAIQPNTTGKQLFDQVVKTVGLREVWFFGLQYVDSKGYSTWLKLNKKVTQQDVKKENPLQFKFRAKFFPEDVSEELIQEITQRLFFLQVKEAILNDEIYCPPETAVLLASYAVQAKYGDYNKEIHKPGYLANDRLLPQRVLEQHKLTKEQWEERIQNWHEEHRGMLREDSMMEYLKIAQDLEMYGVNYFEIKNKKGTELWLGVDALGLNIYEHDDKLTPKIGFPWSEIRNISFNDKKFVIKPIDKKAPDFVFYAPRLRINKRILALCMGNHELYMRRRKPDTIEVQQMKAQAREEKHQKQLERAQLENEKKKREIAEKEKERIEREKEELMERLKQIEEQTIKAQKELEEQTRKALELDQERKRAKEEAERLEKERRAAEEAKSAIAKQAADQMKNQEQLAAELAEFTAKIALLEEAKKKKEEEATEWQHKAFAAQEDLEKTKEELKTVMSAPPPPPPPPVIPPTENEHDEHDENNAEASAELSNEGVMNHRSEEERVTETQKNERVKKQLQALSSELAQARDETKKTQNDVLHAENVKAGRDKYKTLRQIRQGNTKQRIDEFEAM
UniProt Q96CM3: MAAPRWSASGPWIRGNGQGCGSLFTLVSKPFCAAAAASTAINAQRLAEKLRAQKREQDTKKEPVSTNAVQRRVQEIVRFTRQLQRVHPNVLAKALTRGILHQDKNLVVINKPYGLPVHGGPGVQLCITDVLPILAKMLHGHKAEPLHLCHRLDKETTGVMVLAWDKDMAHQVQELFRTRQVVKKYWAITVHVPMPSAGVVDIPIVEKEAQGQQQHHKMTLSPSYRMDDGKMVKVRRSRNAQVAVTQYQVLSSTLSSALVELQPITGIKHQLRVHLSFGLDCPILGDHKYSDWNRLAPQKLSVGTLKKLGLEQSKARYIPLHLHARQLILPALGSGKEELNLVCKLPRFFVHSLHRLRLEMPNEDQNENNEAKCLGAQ
UniProt Q01196, whole entry: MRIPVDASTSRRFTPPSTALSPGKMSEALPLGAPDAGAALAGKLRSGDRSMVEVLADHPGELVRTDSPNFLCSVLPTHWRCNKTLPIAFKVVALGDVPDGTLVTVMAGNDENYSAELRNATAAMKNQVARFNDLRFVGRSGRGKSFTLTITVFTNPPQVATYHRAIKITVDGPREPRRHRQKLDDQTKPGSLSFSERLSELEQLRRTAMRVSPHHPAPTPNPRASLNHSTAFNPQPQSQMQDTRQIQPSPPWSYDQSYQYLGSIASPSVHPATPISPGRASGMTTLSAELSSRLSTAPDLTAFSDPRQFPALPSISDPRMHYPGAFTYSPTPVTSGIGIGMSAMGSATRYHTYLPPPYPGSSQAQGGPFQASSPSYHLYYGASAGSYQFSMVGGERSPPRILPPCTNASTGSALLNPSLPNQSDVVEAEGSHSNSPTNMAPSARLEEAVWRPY
UniProt Q96HR9: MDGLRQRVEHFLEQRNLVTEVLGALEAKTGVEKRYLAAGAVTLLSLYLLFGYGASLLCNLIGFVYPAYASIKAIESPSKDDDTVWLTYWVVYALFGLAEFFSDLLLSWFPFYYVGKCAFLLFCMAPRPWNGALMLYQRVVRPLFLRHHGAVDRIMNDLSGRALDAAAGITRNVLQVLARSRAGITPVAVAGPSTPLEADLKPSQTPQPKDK
UniProt O75818: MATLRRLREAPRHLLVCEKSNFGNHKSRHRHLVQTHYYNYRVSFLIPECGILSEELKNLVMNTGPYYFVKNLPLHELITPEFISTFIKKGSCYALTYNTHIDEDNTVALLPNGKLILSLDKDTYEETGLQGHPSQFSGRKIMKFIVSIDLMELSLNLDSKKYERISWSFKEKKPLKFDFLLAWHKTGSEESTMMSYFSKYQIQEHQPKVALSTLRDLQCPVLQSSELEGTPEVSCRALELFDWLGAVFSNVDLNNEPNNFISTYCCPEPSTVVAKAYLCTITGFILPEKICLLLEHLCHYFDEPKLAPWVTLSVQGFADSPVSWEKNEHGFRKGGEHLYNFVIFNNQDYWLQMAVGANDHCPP
UniProt Q99942: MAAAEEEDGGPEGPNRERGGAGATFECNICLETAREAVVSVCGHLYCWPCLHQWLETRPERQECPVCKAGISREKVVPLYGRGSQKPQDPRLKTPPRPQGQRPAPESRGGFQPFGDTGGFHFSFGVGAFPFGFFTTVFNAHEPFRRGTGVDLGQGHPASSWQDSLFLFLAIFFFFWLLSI
UniProt P35249, whole entry: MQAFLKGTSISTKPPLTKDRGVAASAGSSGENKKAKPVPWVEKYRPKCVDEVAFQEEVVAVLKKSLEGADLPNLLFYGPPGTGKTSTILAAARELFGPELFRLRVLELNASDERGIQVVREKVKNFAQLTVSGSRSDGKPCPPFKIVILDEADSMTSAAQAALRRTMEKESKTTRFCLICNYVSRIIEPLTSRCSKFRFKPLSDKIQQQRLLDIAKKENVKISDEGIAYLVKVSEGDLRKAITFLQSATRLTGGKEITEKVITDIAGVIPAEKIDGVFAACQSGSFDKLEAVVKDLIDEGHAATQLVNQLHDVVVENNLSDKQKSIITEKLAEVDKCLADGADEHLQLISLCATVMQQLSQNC
UniProt P05109: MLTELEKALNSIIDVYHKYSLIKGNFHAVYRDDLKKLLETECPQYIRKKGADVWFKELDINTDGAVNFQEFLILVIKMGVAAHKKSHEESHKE
UniProt Q9UBE0: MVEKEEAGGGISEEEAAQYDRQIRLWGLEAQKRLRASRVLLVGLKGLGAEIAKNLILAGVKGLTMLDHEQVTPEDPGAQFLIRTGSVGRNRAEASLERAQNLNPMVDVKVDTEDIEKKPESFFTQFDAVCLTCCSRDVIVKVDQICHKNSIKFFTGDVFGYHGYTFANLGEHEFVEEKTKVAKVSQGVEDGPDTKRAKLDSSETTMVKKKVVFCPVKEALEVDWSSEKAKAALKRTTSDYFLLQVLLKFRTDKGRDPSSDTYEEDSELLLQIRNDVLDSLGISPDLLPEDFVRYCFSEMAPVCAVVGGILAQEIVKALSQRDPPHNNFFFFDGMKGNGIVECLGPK
UniProt P84095: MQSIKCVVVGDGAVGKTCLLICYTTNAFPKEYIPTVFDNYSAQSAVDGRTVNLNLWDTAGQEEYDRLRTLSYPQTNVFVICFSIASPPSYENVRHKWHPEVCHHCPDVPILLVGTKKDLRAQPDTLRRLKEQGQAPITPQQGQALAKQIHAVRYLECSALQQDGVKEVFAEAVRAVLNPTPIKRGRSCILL
UniProt Q9UHR5: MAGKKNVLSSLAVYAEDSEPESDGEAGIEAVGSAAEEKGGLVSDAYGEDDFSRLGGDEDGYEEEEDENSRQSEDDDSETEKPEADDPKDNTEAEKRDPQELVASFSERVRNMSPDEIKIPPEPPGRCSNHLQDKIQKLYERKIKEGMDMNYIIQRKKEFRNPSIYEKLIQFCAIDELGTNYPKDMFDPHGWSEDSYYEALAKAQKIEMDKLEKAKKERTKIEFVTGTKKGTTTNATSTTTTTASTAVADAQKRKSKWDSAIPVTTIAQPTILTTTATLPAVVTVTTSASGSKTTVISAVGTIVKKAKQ
UniProt P05386, whole entry: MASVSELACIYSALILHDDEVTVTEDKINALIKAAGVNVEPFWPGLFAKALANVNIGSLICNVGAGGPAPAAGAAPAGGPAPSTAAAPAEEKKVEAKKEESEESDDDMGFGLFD
UniProt P23921: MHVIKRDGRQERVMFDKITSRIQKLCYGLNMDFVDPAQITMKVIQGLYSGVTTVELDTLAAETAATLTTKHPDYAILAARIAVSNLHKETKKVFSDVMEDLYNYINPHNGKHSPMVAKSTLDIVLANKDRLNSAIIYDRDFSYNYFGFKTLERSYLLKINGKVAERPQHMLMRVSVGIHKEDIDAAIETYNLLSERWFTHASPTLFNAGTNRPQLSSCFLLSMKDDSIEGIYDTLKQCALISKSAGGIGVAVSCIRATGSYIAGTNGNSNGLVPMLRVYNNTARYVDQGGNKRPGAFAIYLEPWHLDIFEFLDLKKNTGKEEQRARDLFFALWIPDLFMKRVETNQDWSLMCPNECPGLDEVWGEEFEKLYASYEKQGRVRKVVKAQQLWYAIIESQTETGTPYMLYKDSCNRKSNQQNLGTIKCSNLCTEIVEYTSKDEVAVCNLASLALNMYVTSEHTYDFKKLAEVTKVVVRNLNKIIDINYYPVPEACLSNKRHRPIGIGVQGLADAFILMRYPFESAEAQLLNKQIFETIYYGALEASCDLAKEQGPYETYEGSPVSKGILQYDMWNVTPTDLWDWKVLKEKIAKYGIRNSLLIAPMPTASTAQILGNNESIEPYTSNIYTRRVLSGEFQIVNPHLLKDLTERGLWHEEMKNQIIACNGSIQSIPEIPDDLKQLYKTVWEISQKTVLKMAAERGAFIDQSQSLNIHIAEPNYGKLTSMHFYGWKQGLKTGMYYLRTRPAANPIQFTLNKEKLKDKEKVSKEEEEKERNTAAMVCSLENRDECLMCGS

Compound: COc1ccc(Cn2ccc3ccc(C(=O)NO)cc32)cc1
Assay: dose-dependent thermal stabilisation call (2D-TPP, DLPTP, 10% FDR) (binary (1 = stabilised)); higher = stabilised by the compound
Settings: system: HL-60 intact cells; concentration range 0.04-10 µM

| Target | dose-dependent thermal stabilisation call |
| --- | --- |
| RUVBL2 (UniProt Q9Y230) | inactive: 0 |
| RUVBL1 (UniProt Q9Y265) | inactive: 0 |
| RNF14 (UniProt Q9UBS8) | inactive: 0 |
| SACM1L (UniProt Q9NTJ5) | inactive: 0 |
| RDX (UniProt P35241) | inactive: 0 |
| RPS19 (UniProt P39019) | inactive: 0 |
| RPS18 (UniProt P62269) | inactive: 0 |
| RPUSD4 (UniProt Q96CM3) | inactive: 0 |
| RUNX1 (UniProt Q01196) | inactive: 0 |
| RPS16 (UniProt P62249) | inactive: 0 |
| REEP6 (UniProt Q96HR9) | inactive: 0 |
| RPP40 (UniProt O75818) | inactive: 0 |
| RPS13 (UniProt P62277) | inactive: 0 |
| RNF5 (UniProt Q99942) | inactive: 0 |
| RPL37 (UniProt P61927) | active: 1 |
| RFC4 (UniProt P35249) | inactive: 0 |
| RSL1D1 (UniProt O76021) | inactive: 0 |
| S100A8 (UniProt P05109) | inactive: 0 |
| RSF1 (UniProt Q96T23) | inactive: 0 |
| SAE1 (UniProt Q9UBE0) | inactive: 0 |
| RPL23 (UniProt P62829) | inactive: 0 |
| RHOG (UniProt P84095) | inactive: 0 |
| RPL18A (UniProt Q02543) | inactive: 0 |
| SAP30BP (UniProt Q9UHR5) | inactive: 0 |
| RPS7 (UniProt P62081) | inactive: 0 |
| RPLP1 (UniProt P05386) | inactive: 0 |
| RRM1 (UniProt P23921) | inactive: 0 |

Given bar-delimited: entries from further up.
Target | dose-dependent thermal stabilisation call
SAP30BP (UniProt Q9UHR5) | inactive: 0
RPS7 (UniProt P62081) | inactive: 0
